PubChem BioAssay AID1488 (Vanderbilt High Throughput Screening Facility, 2009)
Out of some 1,700 compounds screened, about 310 (18%) were called active. Inconclusive results, whose numbers are uncertain, are shown with a selection of clear calls.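 How the source made its calls: active means fluorescence change differs from the solvent-only DMSO control mean at a set confidence level in both duplicate runs; inconclusive means differs from solvent-only control mean in just one of two runs; inactive means the rest.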

Sequences of proteins named here, by UniProt entry; tags and fusion partners are left off. A change or cut given only in a name is not applied to a line headed by its entry.
UniProt P08482: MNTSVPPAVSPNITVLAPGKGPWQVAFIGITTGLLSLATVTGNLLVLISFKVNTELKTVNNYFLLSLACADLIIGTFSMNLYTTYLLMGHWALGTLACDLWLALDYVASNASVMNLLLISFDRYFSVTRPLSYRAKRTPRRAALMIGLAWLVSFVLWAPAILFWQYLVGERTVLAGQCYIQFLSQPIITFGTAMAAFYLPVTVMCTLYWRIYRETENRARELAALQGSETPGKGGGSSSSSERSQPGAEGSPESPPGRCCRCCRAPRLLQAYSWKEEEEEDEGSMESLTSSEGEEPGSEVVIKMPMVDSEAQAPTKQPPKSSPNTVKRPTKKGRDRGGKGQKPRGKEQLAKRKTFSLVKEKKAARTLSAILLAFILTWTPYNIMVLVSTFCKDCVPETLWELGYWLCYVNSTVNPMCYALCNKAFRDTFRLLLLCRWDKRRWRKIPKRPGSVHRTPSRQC

The compounds below were run against Muscarinic acetylcholine receptor M1 (Rattus norvegicus) (UniProt P08482) (assay: rat M1 muscarinic receptor agonists, confirmation, CHO-M1 cells, Fluo-4 calcium, duplicate retest (AID 1488;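 further: an EC20 dose of acetylcholine follows compound addition during the same imaging run; raw fluorescence intensity difference in instrument units with no normalization to controls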)). Conditions: Fluo-4 calcium fluorescence, agonist mode, at 10 µM, actives lie on both sides.

`COc1ccc(S(=O)(=O)NCCOc2ccccc2)cc1OC` was tested. Which fluorescence change (max-min) did it give?
Its fluorescence change (max-min) is inactive: -10.6.

Which fluorescence change (max-min) does the source give for `CCCCOc1ncnc2c1[nH]c1ccc(F)cc12` here?
The fluorescence change (max-min) was inactive: -1.67.

How did the fluorescence change (max-min) turn out when `CCN(CC)P1(=O)OC(c2cc(OC)c(OC)c(OC)c2)=Nc2c1c(C)nn2-c1ccccc1` (configuration not stated) was run?
The fluorescence change (max-min) was inactive: 6.98.

Which fluorescence change (max-min) does the source give for `Cc1ccc(C2C(C#N)=C(N)Oc3c2sc2ccccc32)o1` (configuration not stated) here?
The fluorescence change (max-min) was active: 165.

For `Cc1nn(C)c(C)c1CN(C)C(=O)c1cnn2c1NC(c1ccccc1)CC2C(F)(F)F` (configuration not stated), which fluorescence change (max-min) is on record?
Its fluorescence change (max-min) is active: -26.

How did the fluorescence change (max-min) turn out when `CCCCOc1[nH]c2nc(-c3ccco3)n(Cc3ccco3)c(=N)c2c1C#N` was run?
Its fluorescence change (max-min) is inactive: 18.3.

For `CCOC(=O)Cn1c2ccc(OC)cc2c2nc3ccccc3nc21`, which fluorescence change (max-min) is on record?
Its fluorescence change (max-min) is inactive: -10.4.

`O=C(Nc1cccc(NC(=O)c2ccc(-c3cccc(Br)c3)o2)c1)c1ccco1` was tested. Which fluorescence change (max-min) did it give?
The fluorescence change (max-min) was inconclusive: -26.4.

For `CCC(=O)N(CC)c1nc(-c2ccc(OC)cc2)cs1`, which fluorescence change (max-min) is on record?
The fluorescence change (max-min) was inconclusive: -18.3.

How did the fluorescence change (max-min) turn out when `COc1cccc(NC(=O)c2cccs2)c1` was run?
The fluorescence change (max-min) was inconclusive: -20.3.

`CC(C)c1nnc(NC(=O)CCC(=O)N2CCN(C3CCCCC3)CC2)s1` was tested. Which fluorescence change (max-min) did it give?
The fluorescence change (max-min) was inconclusive: 56.2.

With `COc1ccccc1CCNC(=O)c1cnn2c(C(F)F)cc(C)nc12` as the compound, how does the fluorescence change (max-min) read?
The fluorescence change (max-min) was inactive: -9.86.

For `c1cc2c(cc1-c1cnc3n1CCC3)OCCO2`, which fluorescence change (max-min) is on record?
The fluorescence change (max-min) was inconclusive: -19.4.

Which fluorescence change (max-min) does the source give for `CS(=O)(=O)N1CCN(CC2CC3C=CC2C3)CC1` (configuration not stated) here?
Its fluorescence change (max-min) is active: 208.

Which fluorescence change (max-min) does the source give for `C=CCn1c(SCC(=O)c2ccc(OC)cc2)nnc1C(C)NC(=O)c1cccs1` (configuration not stated) here?
The fluorescence change (max-min) was inconclusive: -21.6.

For `Cc1cccc(N2C(=O)c3cccc4c(N(C)CCO)ccc(c34)C2=O)c1`, which fluorescence change (max-min) is on record?
The fluorescence change (max-min) was active: 1540.

Which fluorescence change (max-min) does the source give for `O=C(c1cc2nc(-c3ccco3)cc(C(F)(F)F)n2n1)N1CCN(c2ccccn2)CC1` here?
The fluorescence change (max-min) was inconclusive: -29.

With `COc1cc(C2C(C#N)=C(N)Oc3cc(N(C)C)ccc32)cc2c1OCO2` (configuration not stated) as the compound, how does the fluorescence change (max-min) read?
Its fluorescence change (max-min) is active: 206.

`CC(C)N(Cc1nc(-c2ccc(Cl)cc2)no1)C(=O)CCC1CCCC1` was tested. Which fluorescence change (max-min) did it give?
Its fluorescence change (max-min) is inconclusive: -17.2.

Which fluorescence change (max-min) does the source give for `C=CCN(CC=C)S(=O)(=O)c1ccc2nc(NC(=O)C(C)C)sc2c1` here?
Its fluorescence change (max-min) is inconclusive: -14.5.

Which fluorescence change (max-min) does the source give for `O=C(OCC(=O)N1CCN(C(=O)c2ccco2)CC1)c1cn(-c2ccccc2)nc1-c1ccccc1` here?
The fluorescence change (max-min) was inconclusive: -23.1.

Which fluorescence change (max-min) does the source give for `O=C(O)c1ccc(S(=O)(=O)NC2CCCc3ccccc32)cc1` (configuration not stated) here?
The fluorescence change (max-min) was inconclusive: -18.5.

How did the fluorescence change (max-min) turn out when `CC(=O)c1ccc(NC(=O)N2CCN(c3cccc(Cl)c3)CC2)cc1` was run?
Its fluorescence change (max-min) is inconclusive: -26.9.

How did the fluorescence change (max-min) turn out when `Cc1ccc(C(=O)NCCn2cc(SCC(=O)Nc3nnc(C)s3)c3ccccc32)cc1` was run?
The fluorescence change (max-min) was inconclusive: -19.6.

`COc1ccc2ccccc2c1/C=N/O` was tested. Which fluorescence change (max-min) did it give?
The fluorescence change (max-min) was inconclusive: -18.4.

How did the fluorescence change (max-min) turn out when `O=C(NCCCN1CCOCC1)c1cc(-c2ccc(Br)cc2)on1` was run?
Its fluorescence change (max-min) is inconclusive: -18.4.

`N#Cc1nc(COc2ccccc2)oc1N1CCN(c2cccc(Cl)c2)CC1` was tested. Which fluorescence change (max-min) did it give?
The fluorescence change (max-min) was active: 122.

How did the fluorescence change (max-min) turn out when `CCC(=O)c1cc(F)c(N2CCN(C(=O)Cc3ccccc3)CC2)cc1C` was run?
Its fluorescence change (max-min) is inactive: 2.73.

Which fluorescence change (max-min) does the source give for `CC1CCCCN1S(=O)(=O)c1ccc(C(=O)Nc2nnc(-c3ccccc3Cl)o2)cc1` (configuration not stated) here?
The fluorescence change (max-min) was inconclusive: -17.9.

`O=C1OCc2ccc(NC(=O)C3CCCCC3)cc21` was tested. Which fluorescence change (max-min) did it give?
The fluorescence change (max-min) was active: -36.2.

How did the fluorescence change (max-min) turn out when `CC12CC(NC(=O)N1c1cccc(C(=O)NCc3ccc4c(c3)OCO4)c1)c1cc(Cl)ccc1O2` (configuration not stated) was run?
Its fluorescence change (max-min) is inconclusive: -18.

`CCOc1ccc(CCNC(=O)c2oc3c(c2C)-c2[nH]ncc2CC3)cc1OCC` was tested. Which fluorescence change (max-min) did it give?
The fluorescence change (max-min) was active: -23.5.

For `CC(C)c1nc(SCC(=O)N2CCN(c3ccccc3)CC2)c2c(=O)n(C)c(=O)n(C)c2n1`, which fluorescence change (max-min) is on record?
The fluorescence change (max-min) was inconclusive: -13.6.

With `Cn1cccc1-c1nc2ccc(NC(=O)c3cccs3)cc2[nH]1` as the compound, how does the fluorescence change (max-min) read?
Its fluorescence change (max-min) is inconclusive: -16.3.

For `O/N=C1\CCc2cc(Cl)ccc21`, which fluorescence change (max-min) is on record?
Its fluorescence change (max-min) is inactive: 4.87.

Which fluorescence change (max-min) does the source give for `C1=C(CCNc2ncnc3nc[nH]c23)CCCC1` here?
Its fluorescence change (max-min) is inconclusive: -9.48.

`COc1ccc(CCNc2oc(-c3ccccc3OC)nc2C#N)cc1OC` was tested. Which fluorescence change (max-min) did it give?
The fluorescence change (max-min) was inactive: -21.7.

For `O=C(c1cccs1)c1no[n+]([O-])c1C(=O)c1cccs1`, which fluorescence change (max-min) is on record?
The fluorescence change (max-min) was inactive: 21.1.

Which fluorescence change (max-min) does the source give for `O=C(C1CCCN(S(=O)(=O)c2cccc3cccnc23)C1)N1CCN(c2ccc(F)cc2)CC1` (configuration not stated) here?
The fluorescence change (max-min) was inconclusive: -12.3.

Which fluorescence change (max-min) does the source give for `COc1ccc(S(=O)(=O)Cc2ccc(C(=O)N3CCN(c4ccc(Cl)cc4)CC3)o2)cc1` here?
The fluorescence change (max-min) was inactive: -4.25.

With `CCOC(=O)C1CCCN(C2CC(=O)N(c3cccc(C(F)(F)F)c3)C2=O)C1` (configuration not stated) as the compound, how does the fluorescence change (max-min) read?
The fluorescence change (max-min) was active: 66.5.

With `CCN1CCN(c2nc(C)nc3c2sc(=S)n3C)CC1` as the compound, how does the fluorescence change (max-min) read?
The fluorescence change (max-min) was inactive: -10.9.

Which fluorescence change (max-min) does the source give for `CCCOC(=O)c1ccc(OCC(O)Cn2c(C)nc3ccccc32)cc1` (configuration not stated) here?
The fluorescence change (max-min) was inconclusive: -20.6.

`CCCc1[nH]nc2c1C(CCc1ccccc1)C(C#N)=C(N)O2` (configuration not stated) was tested. Which fluorescence change (max-min) did it give?
Its fluorescence change (max-min) is inconclusive: -13.3.

`Cc1cc2cc(CN(Cc3cccs3)Cc3nnnn3CC3CCCO3)c(=O)[nH]c2cc1C` (configuration not stated) was tested. Which fluorescence change (max-min) did it give?
The fluorescence change (max-min) was inactive: 7.46.

Which fluorescence change (max-min) does the source give for `O=C(O)[C@@H](c1ccccc1)N1Cc2ccccc2C1=O` here?
Its fluorescence change (max-min) is inconclusive: -22.4.

With `COc1cc(NS(=O)(=O)c2ccc(C)cc2C)cc(OC)c1OC` as the compound, how does the fluorescence change (max-min) read?
The fluorescence change (max-min) was inconclusive: -23.4.

How did the fluorescence change (max-min) turn out when `COc1ccccc1OCC(O)Cn1c(Br)nc2c1c(=O)[nH]c(=O)n2C` (configuration not stated) was run?
Its fluorescence change (max-min) is inactive: -11.5.

For `COc1ccccc1N1CCN(C(c2cc3ccc(C)cc3[nH]c2=O)c2nnnn2C2CCCC2)CC1` (configuration not stated), which fluorescence change (max-min) is on record?
Its fluorescence change (max-min) is inconclusive: -18.7.

Which fluorescence change (max-min) does the source give for `COc1ccccc1NC(=O)CN1CCC(n2c(C)nc3cc(F)ccc32)CC1` here?
Its fluorescence change (max-min) is inconclusive: -19.7.

Which fluorescence change (max-min) does the source give for `O=C(Nc1ccccc1N1CCN(C(=O)c2ccc(Cl)cc2)CC1)c1cc2ccccc2o1` here?
Its fluorescence change (max-min) is inactive: -20.4.

Which fluorescence change (max-min) does the source give for `CCC(=O)N1CCN(c2ccccc2NC(=O)c2cccc(C)c2)CC1` here?
Its fluorescence change (max-min) is inactive: -14.5.

How did the fluorescence change (max-min) turn out when `CCc1nn(C(C)C(=O)NCCN2CCN(c3cccc(C)c3C)CC2)c(=O)c2cc3occc3n12` (configuration not stated) was run?
Its fluorescence change (max-min) is inconclusive: -33.9.

How did the fluorescence change (max-min) turn out when `Cc1ccc(OCc2nnc(SCc3nc4ccccc4[nH]3)n2Cc2ccco2)cc1` was run?
The fluorescence change (max-min) was inconclusive: -8.13.

For `CCOC(=O)Cc1csc(NC(=O)c2ccc3c(c2)OCO3)n1`, which fluorescence change (max-min) is on record?
Its fluorescence change (max-min) is inactive: -20.9.

For `CNC(=O)C1CC(=O)N(Cc2ccccc2)C(=Nc2ccc(OC)cc2)S1` (configuration not stated), which fluorescence change (max-min) is on record?
The fluorescence change (max-min) was inconclusive: -20.2.

Which fluorescence change (max-min) does the source give for `Cn1c(C(=O)NC2CCCC2)cc2c(=O)n(C)c3ccccc3c21` here?
The fluorescence change (max-min) was active: -39.
